Assay results taken from publication PMC7819943, “Rice protein-binding microarrays: a tool to detect cis-acting elements near promoter regions in rice”.
This is one part of the list.

By UniProt entry, the sequences of proteins in these tests, tags left out.
UniProt Q0JBA9, entry or part of it: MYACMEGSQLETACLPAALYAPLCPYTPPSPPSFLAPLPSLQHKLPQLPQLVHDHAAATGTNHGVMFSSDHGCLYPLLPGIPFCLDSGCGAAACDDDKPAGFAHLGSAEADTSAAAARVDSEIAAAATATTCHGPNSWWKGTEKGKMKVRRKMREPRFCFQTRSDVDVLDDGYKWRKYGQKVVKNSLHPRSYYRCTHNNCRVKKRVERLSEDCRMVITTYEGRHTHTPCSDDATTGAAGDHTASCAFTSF

molecular target: OsWRKY34 (Oryza sativa, UniProt Q0JBA9 1-250); assay: protein-binding microarray (RPBM); PBS, 2% BSA, 51.3 ng/ul salmon testes DNA, 50 uM zinc acetate, 200 nM TF, 25 C, 1 h; high values mean tight binding; details: protein: recombinant; tags: N-terminal polyhistidine and DsRed monomer fusion (pET32a); label: CyDye5-dUTP incorporated in the synthesized complementary strand; 3' TTTTT single-stranded linker to array surface; dsDNA, one strand shown
Summary of the method: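 Binding signal here means per-feature fluorescence intensity in arbitrary units. The values were read on an Axon 4000B scanner after a custom Agilent array, double-stranded by primer extension with Cy5-dUTP, was incubated with 200 nM protein at 25 °C for 1 h in PBS with 2% BSA, salmon testes DNA and 50 µM zinc acetate, then washed. The proteins were transcription factors with an N-terminal polyhistidine tag and DsRed, expressed in E. coli BL21-CodonPlus and purified on Ni–NTA.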

| Sequence | binding signal |
| --- | --- |
| AAATAAATGTTCTCTTTGACCCTTTTAAGACATTGTTCTCCGGAGTCACCTAGTGCAG | 9070 fluorescence intensity (a.u.) |
| TGTGCCCATGGATTTGAACTTTGAACATAGGTTATGGATTCGGAGTCACCTAGTGCAG | 8800 fluorescence intensity (a.u.) |
| AACTTGTCCGTCCCTCACGTCACTTCTGTAAATGTTTATACGGAGTCACCTAGTGCAG | 14700 fluorescence intensity (a.u.) |
| CACCACACCACACCATACCACACCACGGCCATCTCGTCAGCGGAGTCACCTAGTGCAG | 10400 fluorescence intensity (a.u.) |
| ACACAAGTTACACAATATAAAGCCTTCGTTACTGCACTTTCGGAGTCACCTAGTGCAG | 8140 fluorescence intensity (a.u.) |
| GTCACTCACTTTCCTAATGGATTTGTAATATGTTCTCTCACGGAGTCACCTAGTGCAG | 9180 fluorescence intensity (a.u.) |
| CTGAAACTCTGATGAGTTTTTCAATGCTTCCATGTCTATTCGGAGTCACCTAGTGCAG | 8660 fluorescence intensity (a.u.) |
| TTGGGTACGATCCGTGTGCTTTGATATTTTGGCGTGCTTGCGGAGTCACCTAGTGCAG | 8700 fluorescence intensity (a.u.) |
| GGGTTGATGTGTGGTGAAGGGTAGGTAATTTGTAGGAGTACGGAGTCACCTAGTGCAG | 10800 fluorescence intensity (a.u.) |
| TTTCAGAGCTATTTGGCCTTTAATACACTTTCCTATTAAGCGGAGTCACCTAGTGCAG | 8710 fluorescence intensity (a.u.) |
| ATAGGGATGGGGCTACCGGATTTTTTTTCCGGAAGAGATCCGGAGTCACCTAGTGCAG | 9140 fluorescence intensity (a.u.) |
| CACCGCGGACGCTGTCGCCGTCGTCTTCGTCGCCGTCCCTCGGAGTCACCTAGTGCAG | 9480 fluorescence intensity (a.u.) |
| ATTGGCATGGAGTCGTCTCTTGTGGTTGCATTTTATGGATCGGAGTCACCTAGTGCAG | 9440 fluorescence intensity (a.u.) |
| CTCTTTCTTTCTTTCTTTCTTTCTTTTTTTTTTATTAAGGCGGAGTCACCTAGTGCAG | 10700 fluorescence intensity (a.u.) |
| TCATCCATGGCTGCTTCTGCCGCTGCTATCCGATAATCCGCGGAGTCACCTAGTGCAG | 10700 fluorescence intensity (a.u.) |
| CCATCCTTCGTCGGCATTCCAAAACATCTATTTCTCCTGCCGGAGTCACCTAGTGCAG | 9990 fluorescence intensity (a.u.) |
| TTACCAGTGACTAATTTTTTTCCTTCTTTTTTACTTTTCGCGGAGTCACCTAGTGCAG | 10700 fluorescence intensity (a.u.) |
| ATGATAGCAATTCTCTACCCTTTTCAACTGGTTCTTGTCGCGGAGTCACCTAGTGCAG | 8570 fluorescence intensity (a.u.) |
| ACATTGCCCGTGCCCGCTGTGTTATGTACTAGCTGTACAGCGGAGTCACCTAGTGCAG | 8080 fluorescence intensity (a.u.) |
| TCTTTGTTATAATTATGGGGTTGGTTTTATTCGTTTTCGACGGAGTCACCTAGTGCAG | 21900 fluorescence intensity (a.u.) |
| GTATACACCTCTAATTGCGATTTTATATTTTAATTAATTACGGAGTCACCTAGTGCAG | 8310 fluorescence intensity (a.u.) |

| Sequence | binding signal |
| --- | --- |
| GTTTGGGTTGAAGTTTTACAGCCAAAGTCCATCGTCTCGCCGGAGTCACCTAGTGCAG | 8670 fluorescence intensity (a.u.) |
| TACATGTTTCCCTGATTTTCTTTCCTCGAAACATAGATTTCGGAGTCACCTAGTGCAG | 8990 fluorescence intensity (a.u.) |
| GACTCAACCGCTCATGTTGACCGGCCATTTTTTTTAAAGACGGAGTCACCTAGTGCAG | 8930 fluorescence intensity (a.u.) |
| ACAGTTTGTTAGCCAGCCATTTGATTGTGACTTGCCATATCGGAGTCACCTAGTGCAG | 8520 fluorescence intensity (a.u.) |
| GTTGGAGGGGTGTTTTTTTGGTCGGAGAAAGCGCGACGACCGGAGTCACCTAGTGCAG | 8810 fluorescence intensity (a.u.) |
| CAATTGATGGCTACGTCGCTTTTGTCAACTCCTTATTTTCCGGAGTCACCTAGTGCAG | 11100 fluorescence intensity (a.u.) |
| GTCCACATGTTGTATTTTTTATATTATCTTGTTATTAGTACGGAGTCACCTAGTGCAG | 9110 fluorescence intensity (a.u.) |
| GTACCCTTGAATTTTACTCAATCTCCTGGATACCCCTGAACGGAGTCACCTAGTGCAG | 8140 fluorescence intensity (a.u.) |
| CAAATCACGCCTCCATCGCCATCCGCTCTCATCGCCGATCCGGAGTCACCTAGTGCAG | 10800 fluorescence intensity (a.u.) |
| TGTAGTTACCTAATTTGGTCTTGTAAATATTATTATTATACGGAGTCACCTAGTGCAG | 8060 fluorescence intensity (a.u.) |
| TGTGTGCGTGTGTTGTGACTTATGATGTGTTTCTTAAGAACGGAGTCACCTAGTGCAG | 10100 fluorescence intensity (a.u.) |
| TTGTACTACTATTTCTTCATGTTACATAATTCTCCTTGTTCGGAGTCACCTAGTGCAG | 8540 fluorescence intensity (a.u.) |
| TTACTTGTGTGTTTGTGTGTGTTATATATATATATATATACGGAGTCACCTAGTGCAG | 9120 fluorescence intensity (a.u.) |
| CTTCTACTGCTTTACGTGTCACTGCCTATAATAGTACTACCGGAGTCACCTAGTGCAG | 11900 fluorescence intensity (a.u.) |
| CAGCTGTTCGAACTCGGTGCTTGATAGTTTTTTTTTTCTTCGGAGTCACCTAGTGCAG | 8790 fluorescence intensity (a.u.) |
| AACGTTTGACCACTCGTCTTATTCAATTTTTTTTTGTAAACGGAGTCACCTAGTGCAG | 9730 fluorescence intensity (a.u.) |
| GGGTTTTTTATATACTGGTAAATATTCGCTACCGTATTCGCGGAGTCACCTAGTGCAG | 9130 fluorescence intensity (a.u.) |
| GTTCCTTTGGTGTCACATTTGCAGACAATGCTGGAGTCATCGGAGTCACCTAGTGCAG | 8380 fluorescence intensity (a.u.) |
| GATATACAGCATCAATTCAGCCCAACCATAACACAACTCCCGGAGTCACCTAGTGCAG | 10300 fluorescence intensity (a.u.) |
| CCGTTGGTGTCATAACGTGTCTATTGGTGTCTGTATGCTACGGAGTCACCTAGTGCAG | 8380 fluorescence intensity (a.u.) |
| GTGTTAGTTTCTCTTTGTGCTCTGTGATACATTCAAGATGCGGAGTCACCTAGTGCAG | 9490 fluorescence intensity (a.u.) |

Reformatted as tab-separated lines: part of the list above.
Sequence	binding signal
TGTGTGCGTGTGTTGTGACTTATGATGTGTTTCTTAAGAACGGAGTCACCTAGTGCAG	10100 fluorescence intensity (a.u.)
TTGTACTACTATTTCTTCATGTTACATAATTCTCCTTGTTCGGAGTCACCTAGTGCAG	8540 fluorescence intensity (a.u.)
